Values quoted from earlier work, collected in patent US11504075B2, “System, methods, and devices for calculating hypoxic fraction and equilibration rate of small molecular weight tracers using dynamic imaging” (UNIVERSITY HEALTH NETWORK, priority 2017, dated 2022).
For at least one compound, name, drawing or mass did not settle the structure.

Conditions: cited from earlier work

For `O=[N+]([O-])c1nccn1[C@H]1O[C@H](CF)[C@@H](O)[C@@H]1O` [FAZA, fluoroazomycinarabinoside], which “diffusion compared with FMISO” value is on record?
The value was “marginally faster than FMISO”.
